The record followed here is the supplement of paper PMC12595434, “Development of retinoid nuclear receptor pathway antagonists through targeting aldehyde dehydrogenase 1A3” (iScience, 2025).

The chains behind the UniProt entries cited, without tags or fusion partners. Where a name states a change or a piece, a line headed by the entry shows the natural chain unless it says otherwise.
UniProt Q9H089: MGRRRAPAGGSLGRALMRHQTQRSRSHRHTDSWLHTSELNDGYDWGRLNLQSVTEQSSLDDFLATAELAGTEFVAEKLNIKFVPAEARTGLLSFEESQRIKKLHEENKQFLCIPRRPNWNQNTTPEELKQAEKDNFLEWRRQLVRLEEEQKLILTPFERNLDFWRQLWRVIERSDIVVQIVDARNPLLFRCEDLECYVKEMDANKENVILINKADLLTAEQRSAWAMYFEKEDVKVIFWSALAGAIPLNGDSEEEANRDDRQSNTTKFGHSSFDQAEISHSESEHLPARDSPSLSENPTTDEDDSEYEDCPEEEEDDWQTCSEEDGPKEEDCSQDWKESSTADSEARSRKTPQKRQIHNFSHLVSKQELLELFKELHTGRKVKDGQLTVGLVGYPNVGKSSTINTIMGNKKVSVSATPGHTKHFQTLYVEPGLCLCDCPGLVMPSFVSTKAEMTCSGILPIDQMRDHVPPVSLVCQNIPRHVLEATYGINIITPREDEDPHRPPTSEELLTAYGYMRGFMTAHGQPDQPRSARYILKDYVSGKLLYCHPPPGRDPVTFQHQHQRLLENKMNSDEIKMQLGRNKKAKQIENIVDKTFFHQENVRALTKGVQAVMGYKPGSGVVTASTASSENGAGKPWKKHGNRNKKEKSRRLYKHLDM
UniProt Q9H4G4: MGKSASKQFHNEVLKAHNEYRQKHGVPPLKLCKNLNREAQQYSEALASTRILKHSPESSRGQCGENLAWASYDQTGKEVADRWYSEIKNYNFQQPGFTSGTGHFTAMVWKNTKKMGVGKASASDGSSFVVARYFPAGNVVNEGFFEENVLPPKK
UniProt Q9H0U9: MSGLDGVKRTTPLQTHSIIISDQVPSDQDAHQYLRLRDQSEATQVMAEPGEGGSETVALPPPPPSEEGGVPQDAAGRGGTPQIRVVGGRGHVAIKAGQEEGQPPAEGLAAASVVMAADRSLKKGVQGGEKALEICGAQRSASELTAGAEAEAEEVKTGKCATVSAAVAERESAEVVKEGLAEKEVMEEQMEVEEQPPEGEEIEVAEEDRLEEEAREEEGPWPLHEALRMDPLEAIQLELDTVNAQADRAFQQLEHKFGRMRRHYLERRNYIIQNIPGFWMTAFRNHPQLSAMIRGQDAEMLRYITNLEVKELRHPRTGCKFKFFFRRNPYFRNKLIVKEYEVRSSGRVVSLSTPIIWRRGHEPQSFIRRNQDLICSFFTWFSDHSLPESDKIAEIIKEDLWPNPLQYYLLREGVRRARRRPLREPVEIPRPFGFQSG
UniProt Q9H0N5: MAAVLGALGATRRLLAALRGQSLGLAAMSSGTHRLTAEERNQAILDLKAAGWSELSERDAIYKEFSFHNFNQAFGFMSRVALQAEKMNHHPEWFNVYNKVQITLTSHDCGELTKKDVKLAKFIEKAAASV
UniProt Q9H6X2: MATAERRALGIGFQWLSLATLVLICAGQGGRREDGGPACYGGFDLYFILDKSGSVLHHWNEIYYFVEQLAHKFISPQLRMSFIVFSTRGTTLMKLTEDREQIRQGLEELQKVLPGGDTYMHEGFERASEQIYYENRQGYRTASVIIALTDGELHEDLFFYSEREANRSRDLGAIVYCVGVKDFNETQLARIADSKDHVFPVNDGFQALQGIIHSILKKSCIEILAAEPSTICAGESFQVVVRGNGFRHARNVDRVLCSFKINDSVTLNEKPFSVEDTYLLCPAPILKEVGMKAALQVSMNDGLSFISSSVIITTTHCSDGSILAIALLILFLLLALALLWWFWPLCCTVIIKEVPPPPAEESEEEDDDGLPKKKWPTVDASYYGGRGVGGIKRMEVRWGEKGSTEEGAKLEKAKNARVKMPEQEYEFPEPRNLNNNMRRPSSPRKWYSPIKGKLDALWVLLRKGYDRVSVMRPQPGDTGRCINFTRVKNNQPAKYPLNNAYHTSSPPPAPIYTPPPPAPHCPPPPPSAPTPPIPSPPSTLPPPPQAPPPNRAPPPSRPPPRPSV
UniProt Q9H6R7: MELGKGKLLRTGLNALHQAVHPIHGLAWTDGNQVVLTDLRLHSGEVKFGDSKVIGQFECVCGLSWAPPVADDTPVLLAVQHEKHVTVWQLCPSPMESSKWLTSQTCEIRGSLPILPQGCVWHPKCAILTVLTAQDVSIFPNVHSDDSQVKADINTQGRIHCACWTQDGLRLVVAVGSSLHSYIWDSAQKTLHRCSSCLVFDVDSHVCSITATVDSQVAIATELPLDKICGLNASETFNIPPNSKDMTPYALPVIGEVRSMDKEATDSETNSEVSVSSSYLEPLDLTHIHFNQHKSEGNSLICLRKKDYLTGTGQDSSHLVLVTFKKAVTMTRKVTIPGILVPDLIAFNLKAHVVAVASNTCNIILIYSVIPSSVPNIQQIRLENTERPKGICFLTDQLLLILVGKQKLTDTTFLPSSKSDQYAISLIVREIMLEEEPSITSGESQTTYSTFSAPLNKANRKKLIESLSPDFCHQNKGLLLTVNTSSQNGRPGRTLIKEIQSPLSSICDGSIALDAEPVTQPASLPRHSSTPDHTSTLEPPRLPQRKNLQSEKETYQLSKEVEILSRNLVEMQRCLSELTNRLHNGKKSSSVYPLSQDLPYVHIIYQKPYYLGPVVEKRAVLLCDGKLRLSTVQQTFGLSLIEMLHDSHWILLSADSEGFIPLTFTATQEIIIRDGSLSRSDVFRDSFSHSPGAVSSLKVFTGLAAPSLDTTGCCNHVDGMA
UniProt Q9H2G4: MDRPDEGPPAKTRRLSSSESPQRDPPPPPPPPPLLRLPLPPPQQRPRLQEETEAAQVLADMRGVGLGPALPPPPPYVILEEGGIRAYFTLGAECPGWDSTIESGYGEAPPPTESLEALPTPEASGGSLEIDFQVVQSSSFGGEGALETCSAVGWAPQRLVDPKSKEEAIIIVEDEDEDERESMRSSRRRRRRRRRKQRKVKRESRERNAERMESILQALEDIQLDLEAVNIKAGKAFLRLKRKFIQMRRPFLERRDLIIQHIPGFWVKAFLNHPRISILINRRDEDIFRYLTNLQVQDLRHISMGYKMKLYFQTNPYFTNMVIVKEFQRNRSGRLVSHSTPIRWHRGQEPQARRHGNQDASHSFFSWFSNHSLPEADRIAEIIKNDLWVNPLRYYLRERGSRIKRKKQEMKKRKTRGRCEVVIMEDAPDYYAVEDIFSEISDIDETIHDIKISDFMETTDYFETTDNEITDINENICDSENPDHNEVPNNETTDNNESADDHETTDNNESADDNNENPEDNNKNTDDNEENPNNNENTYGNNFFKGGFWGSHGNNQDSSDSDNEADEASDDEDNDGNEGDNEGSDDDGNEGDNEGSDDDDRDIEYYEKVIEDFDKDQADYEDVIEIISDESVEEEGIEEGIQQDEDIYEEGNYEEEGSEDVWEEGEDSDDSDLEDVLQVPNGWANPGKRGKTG
UniProt Q9H582: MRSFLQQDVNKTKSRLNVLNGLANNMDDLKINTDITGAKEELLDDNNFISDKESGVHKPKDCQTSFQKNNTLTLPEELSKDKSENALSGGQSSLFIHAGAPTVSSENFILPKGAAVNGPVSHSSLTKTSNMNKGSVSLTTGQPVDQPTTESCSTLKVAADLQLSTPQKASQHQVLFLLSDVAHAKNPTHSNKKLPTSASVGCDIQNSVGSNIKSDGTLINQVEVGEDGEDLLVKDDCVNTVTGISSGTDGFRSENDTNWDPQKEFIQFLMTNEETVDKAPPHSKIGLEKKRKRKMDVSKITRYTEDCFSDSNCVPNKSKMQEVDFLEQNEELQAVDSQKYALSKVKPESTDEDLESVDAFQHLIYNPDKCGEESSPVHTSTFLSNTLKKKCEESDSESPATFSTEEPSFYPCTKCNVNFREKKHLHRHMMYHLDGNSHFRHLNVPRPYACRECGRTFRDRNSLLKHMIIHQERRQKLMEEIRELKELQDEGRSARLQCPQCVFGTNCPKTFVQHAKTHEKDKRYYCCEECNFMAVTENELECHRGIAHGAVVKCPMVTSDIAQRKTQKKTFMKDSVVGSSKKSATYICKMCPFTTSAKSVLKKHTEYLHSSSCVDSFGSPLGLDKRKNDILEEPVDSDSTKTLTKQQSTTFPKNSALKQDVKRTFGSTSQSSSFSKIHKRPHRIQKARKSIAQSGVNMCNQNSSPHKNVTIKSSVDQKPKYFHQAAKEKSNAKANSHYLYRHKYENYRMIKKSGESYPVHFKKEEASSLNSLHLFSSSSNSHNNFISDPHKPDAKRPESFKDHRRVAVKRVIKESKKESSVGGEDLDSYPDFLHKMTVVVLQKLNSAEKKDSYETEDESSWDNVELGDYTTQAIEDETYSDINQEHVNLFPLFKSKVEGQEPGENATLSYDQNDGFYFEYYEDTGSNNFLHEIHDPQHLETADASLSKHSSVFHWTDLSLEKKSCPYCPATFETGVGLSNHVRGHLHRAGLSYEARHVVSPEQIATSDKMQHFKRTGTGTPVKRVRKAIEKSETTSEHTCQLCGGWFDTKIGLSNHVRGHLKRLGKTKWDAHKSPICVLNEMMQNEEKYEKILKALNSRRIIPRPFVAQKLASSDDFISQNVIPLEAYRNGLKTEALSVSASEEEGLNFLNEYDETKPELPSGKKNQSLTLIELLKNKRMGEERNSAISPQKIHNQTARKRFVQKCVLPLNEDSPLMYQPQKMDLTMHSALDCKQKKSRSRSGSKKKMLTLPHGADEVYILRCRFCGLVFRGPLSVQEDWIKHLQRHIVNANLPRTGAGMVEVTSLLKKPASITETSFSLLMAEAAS
UniProt Q9H1B7, whole entry: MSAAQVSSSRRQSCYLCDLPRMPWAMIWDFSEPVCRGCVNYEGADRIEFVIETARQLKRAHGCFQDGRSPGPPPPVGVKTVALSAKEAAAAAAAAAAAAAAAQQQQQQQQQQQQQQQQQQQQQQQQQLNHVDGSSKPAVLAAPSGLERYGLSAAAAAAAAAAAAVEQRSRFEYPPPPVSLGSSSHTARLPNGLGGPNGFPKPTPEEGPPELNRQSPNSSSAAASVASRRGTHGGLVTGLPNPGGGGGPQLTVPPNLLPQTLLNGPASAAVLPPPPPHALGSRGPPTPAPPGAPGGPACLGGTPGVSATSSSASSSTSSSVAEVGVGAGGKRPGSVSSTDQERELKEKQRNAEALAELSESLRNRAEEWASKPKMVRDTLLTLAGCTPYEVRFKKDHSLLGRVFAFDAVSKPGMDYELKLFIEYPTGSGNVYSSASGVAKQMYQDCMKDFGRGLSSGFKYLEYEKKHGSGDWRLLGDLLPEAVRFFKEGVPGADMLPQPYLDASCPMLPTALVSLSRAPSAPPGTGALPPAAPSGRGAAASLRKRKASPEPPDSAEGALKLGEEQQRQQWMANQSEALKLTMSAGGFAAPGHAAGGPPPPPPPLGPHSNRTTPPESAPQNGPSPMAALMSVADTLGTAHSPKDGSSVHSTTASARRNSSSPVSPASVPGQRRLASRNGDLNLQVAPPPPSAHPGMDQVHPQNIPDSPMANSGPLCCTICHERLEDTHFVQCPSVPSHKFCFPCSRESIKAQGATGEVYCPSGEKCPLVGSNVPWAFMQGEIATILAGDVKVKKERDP
UniProt Q9H8G2: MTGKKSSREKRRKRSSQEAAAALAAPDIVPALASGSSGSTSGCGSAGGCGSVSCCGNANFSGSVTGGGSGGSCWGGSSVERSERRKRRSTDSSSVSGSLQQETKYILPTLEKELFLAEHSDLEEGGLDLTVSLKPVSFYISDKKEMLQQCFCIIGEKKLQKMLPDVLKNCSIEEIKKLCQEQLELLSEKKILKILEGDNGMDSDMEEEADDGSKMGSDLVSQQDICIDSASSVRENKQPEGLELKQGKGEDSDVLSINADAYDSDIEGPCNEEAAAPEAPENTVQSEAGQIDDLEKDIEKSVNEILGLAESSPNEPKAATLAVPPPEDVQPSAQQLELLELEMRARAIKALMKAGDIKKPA
UniProt Q9H7C9: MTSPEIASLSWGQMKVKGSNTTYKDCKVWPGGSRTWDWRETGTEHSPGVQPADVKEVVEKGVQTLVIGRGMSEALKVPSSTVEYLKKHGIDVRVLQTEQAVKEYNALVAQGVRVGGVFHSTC
UniProt Q9H361, whole entry: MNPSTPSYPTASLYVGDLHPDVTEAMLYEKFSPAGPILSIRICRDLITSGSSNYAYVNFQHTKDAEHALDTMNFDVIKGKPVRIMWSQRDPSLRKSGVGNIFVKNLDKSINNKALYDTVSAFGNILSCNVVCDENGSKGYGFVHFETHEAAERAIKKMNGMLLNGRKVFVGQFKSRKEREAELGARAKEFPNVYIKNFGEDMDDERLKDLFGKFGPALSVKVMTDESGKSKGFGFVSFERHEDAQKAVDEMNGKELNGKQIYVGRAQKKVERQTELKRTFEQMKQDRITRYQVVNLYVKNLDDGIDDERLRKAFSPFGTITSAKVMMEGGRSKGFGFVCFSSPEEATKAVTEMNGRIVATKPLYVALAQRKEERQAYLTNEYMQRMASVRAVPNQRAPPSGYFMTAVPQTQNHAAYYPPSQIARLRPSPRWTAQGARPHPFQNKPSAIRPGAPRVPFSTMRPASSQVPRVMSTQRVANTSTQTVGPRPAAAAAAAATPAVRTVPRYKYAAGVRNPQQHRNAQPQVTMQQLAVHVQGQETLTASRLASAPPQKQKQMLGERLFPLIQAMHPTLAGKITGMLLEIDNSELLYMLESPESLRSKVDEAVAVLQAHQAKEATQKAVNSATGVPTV

Compound in the experiment: CCc1cnccc1C(=O)Nc1cc2c(cc1F)NC(=O)CC2
The experiment in a line: melting temperature shift (DMSO Tm minus MBE1-treated Tm) in cellular thermal proteome profiling; higher = less thermal stabilization by MBE1 (negative = stabilized by MBE1). The following applies: A375.

The list shows a part of the results. Single values of this set are uncertain.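 Tm was set to 64 °C where no melting was found, and many curves are irregular.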

As for MKRN2 (UniProt Q9H000), the melting temperature shift is 0.256 °C (MBE1 concentration: 100 nM) and -0.905 °C (MBE1 concentration: 1 uM).

MRPL13 (UniProt Q9BYD1): the melting temperature shift is -0.0855 °C (MBE1 concentration: 100 nM) and -0.714 °C (MBE1 concentration: 1 uM).

Turning to POLR1E (UniProt Q9GZS1), the melting temperature shift is -0.448 °C (MBE1 concentration: 100 nM) and -0.564 °C (MBE1 concentration: 1 uM).

UniProt Q9BZM5: the melting temperature shift (MBE1 concentration: 100 nM) is -5.74 °C.

With WDR11 (UniProt Q9BZH6), the melting temperature shift was -0.771 °C (MBE1 concentration: 100 nM) and -0.381 °C (MBE1 concentration: 1 uM).

On to LSG1 (UniProt Q9H089), for which the melting temperature shift (MBE1 concentration: 100 nM) is -0.494 °C and the melting temperature shift (MBE1 concentration: 1 uM) was -0.447 °C.

On to BCAS3 (UniProt Q9H6U6), for which the melting temperature shift reads like this: (MBE1 concentration: 100 nM) -0.428 °C; (MBE1 concentration: 1 uM) 0.00611 °C.

As for NIF3L1 (UniProt Q9GZT8), the melting temperature shift (MBE1 concentration: 1 uM) was -2.52 °C.

Consider SENP6 (UniProt Q9GZR1), for which the melting temperature shift was found to be 1.45 °C (MBE1 concentration: 100 nM) and 0.788 °C (MBE1 concentration: 1 uM).

On to WNK3 (UniProt Q9BYP7), for which the melting temperature shift reads like this: (MBE1 concentration: 100 nM) -0.818 °C; (MBE1 concentration: 1 uM) -0.248 °C.

For the target UNK (UniProt Q9C0B0), the melting temperature shift (MBE1 concentration: 100 nM) amounted to 1.07 °C and the melting temperature shift (MBE1 concentration: 1 uM) turned out to be 0.476 °C.

Turning to PITHD1 (UniProt Q9GZP4), where the note is “MBE1 concentration: 1 uM”, the melting temperature shift is -2.42 °C.

Consider QRSL1 (UniProt Q9H0R6), for which the melting temperature shift (MBE1 concentration: 100 nM) was -0.715 °C and the melting temperature shift (MBE1 concentration: 1 uM) turned out to be 0.155 °C.

For the target UniProt Q9BZ95, the melting temperature shift (MBE1 concentration: 100 nM) was -1.57 °C and the melting temperature shift (MBE1 concentration: 1 uM) was -0.923 °C.

For the target MAGT1 (UniProt Q9H0U3), the melting temperature shift was -0.577 °C (MBE1 concentration: 100 nM) and 0.55 °C (MBE1 concentration: 1 uM).

As to TAOK3 (UniProt Q9H2K8), the melting temperature shift is -2.29 °C (MBE1 concentration: 100 nM) and -0.55 °C (MBE1 concentration: 1 uM).

For UniProt Q9H4G4, the melting temperature shift (MBE1 concentration: 100 nM) is -0.874 °C.

Regarding DOCK9 (UniProt Q9BZ29), the melting temperature shift reads like this: (MBE1 concentration: 100 nM) -1.29 °C; (MBE1 concentration: 1 uM) -0.788 °C.

For DERL2 (UniProt Q9GZP9), the melting temperature shift is, setting by setting: (MBE1 concentration: 100 nM) -1.24 °C; (MBE1 concentration: 1 uM) 0.318 °C.

With VPS33B (UniProt Q9H267), the melting temperature shift is -0.823 °C (MBE1 concentration: 100 nM) and -0.953 °C (MBE1 concentration: 1 uM).

As for UniProt Q9H5Y7, the melting temperature shift (MBE1 concentration: 100 nM) was 2.54 °C.

As for UniProt Q9H5V8, where the note is “MBE1 concentration: 100 nM”, the melting temperature shift was -8.02 °C.

With HDHD2 (UniProt Q9H0R4), the melting temperature shift (MBE1 concentration: 1 uM) was -1.82 °C.

Consider CEP44 (UniProt Q9C0F1), for which the melting temperature shift (MBE1 concentration: 1 uM) is -0.287 °C.

Turning to ZDHHC5 (UniProt Q9C0B5), the melting temperature shift (MBE1 concentration: 1 uM) was -1.09 °C.

As to TSPYL1 (UniProt Q9H0U9), the melting temperature shift by setting is: (MBE1 concentration: 100 nM) -0.278 °C; (MBE1 concentration: 1 uM) -0.378 °C.

Take UniProt Q9H0N5: the melting temperature shift (MBE1 concentration: 1 uM) was -3.04 °C.

BICC1 (UniProt Q9H694): the melting temperature shift (MBE1 concentration: 1 uM) is -1.87 °C.

On to UniProt Q9H6L5, for which the melting temperature shift (MBE1 concentration: 1 uM) was -2.6 °C.

On to MRPL4 (UniProt Q9BYD3), for which the melting temperature shift was -0.586 °C (MBE1 concentration: 100 nM) and -0.0488 °C (MBE1 concentration: 1 uM).

For UniProt Q9H2F5, the melting temperature shift (MBE1 concentration: 100 nM) is 0.0916 °C.

For UniProt Q9C0D7, the melting temperature shift (MBE1 concentration: 100 nM) is -0.183 °C.

With WDR33 (UniProt Q9C0J8), the melting temperature shift by setting is: (MBE1 concentration: 100 nM) 0.0894 °C; (MBE1 concentration: 1 uM) -0.536 °C.

As to NAA50 (UniProt Q9GZZ1), the melting temperature shift is -0.537 °C (MBE1 concentration: 100 nM) and -0.262 °C (MBE1 concentration: 1 uM).

Take UniProt Q9BZ72: the melting temperature shift (MBE1 concentration: 100 nM) amounted to 1.24 °C.

For CLPB (UniProt Q9H078), the melting temperature shift by setting is: (MBE1 concentration: 100 nM) -0.483 °C; (MBE1 concentration: 1 uM) 0.475 °C.

With DPH5 (UniProt Q9H2P9), the melting temperature shift is, setting by setting: (MBE1 concentration: 100 nM) -0.281 °C; (MBE1 concentration: 1 uM) 1.28 °C.

For ANTXR1 (UniProt Q9H6X2), the melting temperature shift is 1.82 °C (MBE1 concentration: 100 nM) and 1.28 °C (MBE1 concentration: 1 uM).

For the target UniProt Q9H6R7, the melting temperature shift came to 0.806 °C (MBE1 concentration: 100 nM) and 0.177 °C (MBE1 concentration: 1 uM).

For the target UniProt Q9H2G4, the melting temperature shift runs as follows: (MBE1 concentration: 100 nM) -0.75 °C; (MBE1 concentration: 1 uM) -0.98 °C.

Consider POFUT1 (UniProt Q9H488), for which the melting temperature shift (MBE1 concentration: 100 nM) is -1.61 °C and the melting temperature shift (MBE1 concentration: 1 uM) is -0.777 °C.

In the case of UniProt Q9H668, the melting temperature shift is -0.306 °C (MBE1 concentration: 100 nM) and -0.346 °C (MBE1 concentration: 1 uM).

Regarding UniProt Q9H706, the melting temperature shift reads like this: (MBE1 concentration: 100 nM) 0.556 °C; (MBE1 concentration: 1 uM) -0.0611 °C.

LMAN2L (UniProt Q9H0V9): the melting temperature shift by setting is: (MBE1 concentration: 100 nM) 0.771 °C; (MBE1 concentration: 1 uM) 1.5 °C.

Turning to EPS8L2 (UniProt Q9H6S3), the melting temperature shift (MBE1 concentration: 100 nM) was -0.0268 °C and the melting temperature shift (MBE1 concentration: 1 uM) is 2.66 °C.

For the target ANAPC1 (UniProt Q9H1A4), the melting temperature shift is, setting by setting: (MBE1 concentration: 100 nM) 0.751 °C; (MBE1 concentration: 1 uM) 0.238 °C.

With UniProt Q9H2J7, the melting temperature shift is -1.96 °C (MBE1 concentration: 100 nM) and -0.543 °C (MBE1 concentration: 1 uM).

For CCDC134 (UniProt Q9H6E4), the melting temperature shift was -1.73 °C (MBE1 concentration: 100 nM) and 0.158 °C (MBE1 concentration: 1 uM).

In the case of UniProt Q9H582, the melting temperature shift (MBE1 concentration: 100 nM) is -0.315 °C and the melting temperature shift (MBE1 concentration: 1 uM) was found to be 4.02 °C.

Take RANBP3 (UniProt Q9H6Z4): the melting temperature shift reads like this: (MBE1 concentration: 100 nM) -0.445 °C; (MBE1 concentration: 1 uM) -0.488 °C.

UniProt Q9H4L4: the melting temperature shift is, setting by setting: (MBE1 concentration: 100 nM) -0.205 °C; (MBE1 concentration: 1 uM) -0.0448 °C.

Consider MRPL20 (UniProt Q9BYC9), for which the melting temperature shift (MBE1 concentration: 100 nM) was found to be 0.592 °C and the melting temperature shift (MBE1 concentration: 1 uM) is -0.0427 °C.

Turning to TMEM206 (UniProt Q9H813), the melting temperature shift was -0.501 °C (MBE1 concentration: 100 nM) and 0.22 °C (MBE1 concentration: 1 uM).

Regarding IRF2BPL (UniProt Q9H1B7), the melting temperature shift runs as follows: (MBE1 concentration: 100 nM) -0.346 °C; (MBE1 concentration: 1 uM) -0.372 °C.

On to PPIL3 (UniProt Q9H2H8), for which the melting temperature shift (MBE1 concentration: 100 nM) is -0.189 °C and the melting temperature shift (MBE1 concentration: 1 uM) is -0.116 °C.

Take COMMD4 (UniProt Q9H0A8): the melting temperature shift is 0.531 °C (MBE1 concentration: 100 nM) and -0.128 °C (MBE1 concentration: 1 uM).

Consider UniProt Q9H211, for which the melting temperature shift (MBE1 concentration: 100 nM) was -1.74 °C and the melting temperature shift (MBE1 concentration: 1 uM) is -1.29 °C.

Take UniProt Q9H7P6: the melting temperature shift runs as follows: (MBE1 concentration: 100 nM) -0.659 °C; (MBE1 concentration: 1 uM) -0.647 °C.

MFF (UniProt Q9GZY8): the melting temperature shift is, setting by setting: (MBE1 concentration: 100 nM) 0.94 °C; (MBE1 concentration: 1 uM) 0.336 °C.

With RAB33B (UniProt Q9H082), the melting temperature shift by setting is: (MBE1 concentration: 100 nM) -1.07 °C; (MBE1 concentration: 1 uM) -2.52 °C.

Consider UniProt Q9H8G2, for which the melting temperature shift is -1.31 °C (MBE1 concentration: 100 nM) and -0.243 °C (MBE1 concentration: 1 uM).

As to HELZ2 (UniProt Q9BYK8), the melting temperature shift stood at 0.861 °C (MBE1 concentration: 100 nM) and 2.48 °C (MBE1 concentration: 1 uM).

Turning to SAP130 (UniProt Q9H0E3), the melting temperature shift runs as follows: (MBE1 concentration: 100 nM) -0.91 °C; (MBE1 concentration: 1 uM) -0.311 °C.

Turning to REEP4 (UniProt Q9H6H4), the melting temperature shift is, setting by setting: (MBE1 concentration: 100 nM) -1.25 °C; (MBE1 concentration: 1 uM) -0.791 °C.

Take PUS3 (UniProt Q9BZE2): the melting temperature shift runs as follows: (MBE1 concentration: 100 nM) -0.577 °C; (MBE1 concentration: 1 uM) 0.401 °C.

On to UniProt Q9H5Z1, for which the melting temperature shift was -0.936 °C (MBE1 concentration: 100 nM) and 0.442 °C (MBE1 concentration: 1 uM).

As to DSN1 (UniProt Q9H410), the melting temperature shift is -0.263 °C (MBE1 concentration: 100 nM) and 0.0188 °C (MBE1 concentration: 1 uM).

For the target CENPH (UniProt Q9H3R5), the melting temperature shift runs as follows: (MBE1 concentration: 100 nM) 1.76 °C; (MBE1 concentration: 1 uM) 1.17 °C.

Consider CRNKL1 (UniProt Q9BZJ0), for which the melting temperature shift is, setting by setting: (MBE1 concentration: 100 nM) -0.199 °C; (MBE1 concentration: 1 uM) -0.314 °C.

As for NIFK (UniProt Q9BYG3), the melting temperature shift was -0.25 °C (MBE1 concentration: 100 nM) and 0.501 °C (MBE1 concentration: 1 uM).

For AAMDC (UniProt Q9H7C9), the melting temperature shift was -0.417 °C (MBE1 concentration: 100 nM) and 0.826 °C (MBE1 concentration: 1 uM).

As to PAIP1 (UniProt Q9H074), the melting temperature shift is -0.63 °C (MBE1 concentration: 100 nM) and -0.161 °C (MBE1 concentration: 1 uM).

With PEAK1 (UniProt Q9H792), the melting temperature shift (MBE1 concentration: 100 nM) is -0.143 °C and the melting temperature shift (MBE1 concentration: 1 uM) amounted to 0.748 °C.

Regarding UniProt Q9H361, the melting temperature shift runs as follows: (MBE1 concentration: 100 nM) 0.0894 °C; (MBE1 concentration: 1 uM) 0.551 °C.
